{"source": "the supplement of paper PMC8616043", "note": "Where a name gives a salt, the structure may show the parent alone. Some of the results follow. Single values are uncertain here, since repeats match poorly.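 PR50, a 50-repeat proline–arginine dipeptide protein from C9ORF72 (ALS/FTD), was expressed by transfection in U-2 OS human cells stably carrying a GFP sensor with import and classical export signals. Per-well nuclear-minus-cytoplasm GFP, normalized between in-plate DMSO (low) and PR-only (high), was scored versus other test wells; compounds well below zero were hits reversing PR.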", "data": [{"system": "U-2 OS NCT-C biosensor cells expressing PR50", "experiment": "Z-score of normalised NCT-C biosensor translocation index in PR50-expressing cells; higher = more nuclear biosensor (more disrupted nuclear export)", "conditions": "3 µM; 24 h", "values": [{"compound": "C[C@@H]1[C@H](O)[C@@H](C)/C=C/C=C/C=C/C=C/C=C/C=C/C=C/[C@H](O[C@@H]2O[C@H](C)[C@@H](O)[C@H](N)[C@@H]2O)C[C@@H]2O[C@](O)(C[C@@H](O)C[C@@H](O)[C@H](O)CC[C@@H](O)C[C@@H](O)CC(=O)O[C@H]1C)C[C@H](O)[C@H]2C(=O)O", "note": "[Amphotericin B]", "Z-score": "inactive: 0.0445"}, {"compound": "O=C1Cc2cc(CCN3CCN(c4nsc5ccccc45)CC3)c(Cl)cc2N1", "note": "[Ziprasidone HCl monohydrate]", "Z-score": "inactive: 1.65"}, {"compound": "CC(C)/N=c1\\cc2n(-c3ccc(Cl)cc3)c3ccccc3nc-2cc1Nc1ccc(Cl)cc1", "note": "[Clofazimine]", "Z-score": "inactive: 0.309"}, {"compound": "Cc1cc(C(=O)Cn2cc(C#N)ccc2=O)c(C)n1Cc1ccccc1", "Z-score": "inactive: -0.838"}, {"compound": "CCNC(=O)CC[C@H](N)C(=O)O", "note": "[L-Theanine]", "Z-score": "inactive: 0.596"}, {"compound": "CCN[C@H]1C[C@H](C)S(=O)(=O)c2sc(S(N)(=O)=O)cc21", "note": "[Dorzolamide·HCl]", "Z-score": "inactive: 0.789"}, {"compound": "N[C@H](CO)C(=O)O", "note": "[D-Serine]", "Z-score": "inactive: -0.96"}, {"compound": "CC(=O)N(O)CCCCCNC(=O)CCC(=O)N(O)CCCCCNC(=O)CCC(=O)N(O)CCCCCN", "note": "[Deferoxamine Mesylate]", "Z-score": "inactive: -0.173"}, {"compound": "CC(C)(C(=O)c1cccnc1)c1cccnc1", "note": "[Metyrapone]", "Z-score": "inactive: -0.222"}, {"compound": "Nc1ncn([C@H]2C[C@H](O)[C@@H](CO)O2)c(=O)n1", "note": "[Decitabine]", "Z-score": "inactive: -0.267"}, {"compound": "Nc1ncn([C@H]2C[C@H](O)[C@@H](CO)O2)c(=O)n1", "note": "[5-Aza-2'-deoxycytidine]", "Z-score": "inactive: 0.41"}, {"compound": "NCCCCNCCCN", "note": "[Spermidine trihydrochloride]", "Z-score": "inactive: 0.542"}, {"compound": "O=c1cc(-c2ccc(O)c(O)c2)oc2cc(O)cc(O)c12", "note": "[Luteolin]", "Z-score": "inactive: -0.5"}, {"compound": "CCOC(=O)[C@]12CC1/C(=N\\O)c1ccccc1O2", "note": "(some centres undefined)", "Z-score": "inactive: 0.283"}, {"compound": "CC(=O)Nc1ccc(NC(=S)NC(=O)c2ccc(C(C)(C)C)cc2)cc1", "note": "[Tenovin-1]", "Z-score": "active: -1.99"}, {"compound": "CCCCC1OC(=O)C2=CCCCC21", "note": "(centres undefined) [Sedanolide]", "Z-score": "inactive: -0.409"}, {"compound": "NC12CC3CC(CC(C3)C1)C2", "note": "[Amantadine·HCl]", "Z-score": "active: -3.19"}, {"compound": "NC12CC3CC(CC(C3)C1)C2", "note": "[Amantadine hydrochloride]", "Z-score": "inactive: 1.15"}, {"compound": "CO[C@H]1O[C@@H]2O[C@@]3(C)CC[C@H]4[C@H](C)CC[C@@H]([C@H]1C)[C@@]24OO3", "note": "[Artemether]", "Z-score": "inactive: -0.581"}, {"compound": "CC1(C2CCCC2)Cc2cc(OCC(=O)O)c(Cl)c(Cl)c2C1=O", "note": "(centres undefined)", "Z-score": "inactive: 0.321"}, {"compound": "Clc1ccc(COC(Cn2ccnc2)c2ccc(Cl)cc2Cl)c(Cl)c1", "note": "(centres undefined) [Miconazole]", "Z-score": "inactive: -0.0813"}, {"compound": "NCC=CC(=O)O", "note": "(stereo in doubt) [cis-4- Aminocrotonic acid]", "Z-score": "inactive: -0.159"}, {"compound": "CC(=O)[C@H]1CC[C@H]2[C@@H]3CC=C4C[C@@H](OS(=O)(=O)O)CC[C@]4(C)[C@H]3CC[C@]12C", "note": "[Pregnenolone sulfate sodium]", "Z-score": "inactive: 2.65"}, {"compound": "COc1cc2c(c(OC)c1OC)-c1c(cc(OC)c(OC)c1OC)CC(C)C(C)C2", "note": "(stereo not drawn) [R(+)-Schisandrin A]", "Z-score": "inactive: -0.0895"}, {"compound": "O=C(O)c1ccccc1Nc1ccccc1", "note": "[N-Phenyl anthranilic acid]", "Z-score": "inactive: -0.00987"}, {"compound": "CCCCCCCCCCC1=C(C)C(=O)C(OC)=C(OC)C1=O", "note": "[Decylubiquinone]", "Z-score": "inactive: -0.329"}, {"compound": "Cc1ccc(/C=N/NC(=O)c2n[nH]c3c2CCCC3)cc1", "note": "[Suprafenacine]", "Z-score": "inactive: 3.01"}, {"compound": "C=CC[C@H](N)C(=O)O", "note": "[L-allylglycine]", "Z-score": "inactive: -0.157"}, {"compound": "C[C@H](NC(=O)CNC(=O)c1cccc(Cl)c1)c1ccccc1", "Z-score": "inactive: -0.0954"}]}]}
